Reference: article PMC6714217
No constants are given. Whether binding was seen depends on the method and setting. Binding seen in cells or lysates may run through a third protein. Some results given as binding are weak or reduced against the parent protein; the word gives no strength.

Biological target: T1, FOXM1 (human (endogenous in MDA-MB-231)) (UniProt Q08050)
T1 sequence: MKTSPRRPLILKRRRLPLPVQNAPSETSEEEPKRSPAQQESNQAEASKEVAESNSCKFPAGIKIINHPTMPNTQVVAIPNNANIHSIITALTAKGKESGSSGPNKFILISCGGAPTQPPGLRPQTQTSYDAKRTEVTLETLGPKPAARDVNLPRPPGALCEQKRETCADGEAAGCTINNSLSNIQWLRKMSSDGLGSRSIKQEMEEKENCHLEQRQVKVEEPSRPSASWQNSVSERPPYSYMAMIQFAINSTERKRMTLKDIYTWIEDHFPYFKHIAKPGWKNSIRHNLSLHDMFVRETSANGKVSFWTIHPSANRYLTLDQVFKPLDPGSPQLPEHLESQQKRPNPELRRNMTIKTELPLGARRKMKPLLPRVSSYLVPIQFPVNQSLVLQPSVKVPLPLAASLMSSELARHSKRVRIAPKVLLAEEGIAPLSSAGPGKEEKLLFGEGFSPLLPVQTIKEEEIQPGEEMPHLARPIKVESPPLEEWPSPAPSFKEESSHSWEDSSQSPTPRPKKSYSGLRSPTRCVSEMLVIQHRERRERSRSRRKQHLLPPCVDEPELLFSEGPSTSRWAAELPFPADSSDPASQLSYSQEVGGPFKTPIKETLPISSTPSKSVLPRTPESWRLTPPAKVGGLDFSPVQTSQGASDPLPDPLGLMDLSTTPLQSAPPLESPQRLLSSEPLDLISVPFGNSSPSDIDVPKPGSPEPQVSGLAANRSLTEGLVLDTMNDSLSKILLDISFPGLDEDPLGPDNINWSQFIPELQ
Experiment: co-IP; endogenous proteins in MDA-MB-231 lysate; IP buffer 50 mmol/L Tris pH 7.5, 100 mmol/L NaCl, 5 mmol/L EDTA, 5 mmol/L EGTA, 1% NP-40, 5% glycerol; which of the two was precipitated is not told

binding: binds
B1: Aurora kinase A (enzyme, UniProt O14965 1-403)
chain: MDRSKENCISGPVKATAPVGGPKRVLVTQQFPCQNPLPVNSGQAQRVLCPSNSSQRIPLQAQKLVSSHKPVQNQKQKQLQATSVPHPVSRPLNNTQKSKQPLPSAPENNPEEELASKQKNEESKKRQWALEDFEIGRPLGKGKFGNVYLAREKQSKFILALKVLFKAQLEKAGVEHQLRREVEIQSHLRHPNILRLYGYFHDATRVYLILEYAPLGTVYRELQKLSKFDEQRTATYITELANALSYCHSKRVIHRDIKPENLLLGSAGELKIADFGWSVHAPSSRRTTLCGTLDYLPPEMIEGRMHDEKVDLWSLGVLCYEFLVGKPPFEANTYQETYKRISRVEFTFPDFVTEGARDLISRLLKHNPSQRPMLREVLEHPWITANSSKPSNCQNKESASKQS
